Data source: PubChem BioAssay AID602196 (INSERM, 2012)

- Purpose: 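Knock-downs that protect lung cancer cells from cisplatin or sensitise them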
- Cells: human A549 lung cancer cells
- Knock-down reagent: siRNA pair against human genes
- Time to read-out: 48 h transfection before cisplatin; time from cisplatin to read-out not stated
- Conditions: cisplatin at a dose killing half of control-siRNA cells; exact dose and duration not given
- Measurement: 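Cisplatin cell death as a shift from the 50% death seen with control siRNA; siRNAs toxic or growth-blocking alone scored 0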
- Reading the numbers: two-siRNA summed score (-2 to +2): higher = both siRNAs protect from cisplatin killing; -2 means both sensitise
- Active means: 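siRNAs harmful alone (LDH or WST-1) get 0; others get +1 for less and -1 for more cisplatin killing; genes are active when the two siRNAs give the same sign, summing to ±2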
- Calls: active = both siRNAs shift cisplatin killing the same way; inactive = no consistent shift, or siRNA harmful alone
Shown is one part, drawn at random, of about 23,000 reagents tested. 455 of all reagents (2%) were called active. 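Active includes both protection and sensitisation; some change values fall well beyond the stated -50 to +50 range.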 Reagents against one gene are numbered here. Not all columns of the deposit are shown. The record does not give: the amount of reagent.

MTERF4 (mitochondrial transcription termination factor 4): two-siRNA summed score (-2 to +2) = 0; outcome = inactive
LOC388312: two-siRNA summed score (-2 to +2) = 2; outcome = active
RPL14 (ribosomal protein L14): two-siRNA summed score (-2 to +2) = 1; outcome = inactive
ADAM11 (ADAM metallopeptidase domain 11): two-siRNA summed score (-2 to +2) = -1; outcome = inactive
MAGEA6 (MAGE family member A6): two-siRNA summed score (-2 to +2) = 0; outcome = inactive
ANKRD24 (ankyrin repeat domain 24): two-siRNA summed score (-2 to +2) = 0; outcome = inactive
OR4X1 (olfactory receptor family 4 subfamily X member 1): two-siRNA summed score (-2 to +2) = 1; outcome = inactive
FHL1 (four and a half LIM domains 1): two-siRNA summed score (-2 to +2) = 0; outcome = inactive
RAG1 (recombination activating 1): two-siRNA summed score (-2 to +2) = 0; outcome = inactive
ZSWIM6 (zinc finger SWIM-type containing 6): two-siRNA summed score (-2 to +2) = 0; outcome = inactive
LRRC19 (leucine rich repeat containing 19): two-siRNA summed score (-2 to +2) = 0; outcome = inactive
ACR (acrosin): two-siRNA summed score (-2 to +2) = 0; outcome = inactive
MESP2 (mesoderm posterior bHLH transcription factor 2): two-siRNA summed score (-2 to +2) = 0; outcome = inactive
DNAI3 (dynein axonemal intermediate chain 3): two-siRNA summed score (-2 to +2) = 0; outcome = inactive
TAP1 (transporter 1, ATP binding cassette subfamily B member): two-siRNA summed score (-2 to +2) = 0; outcome = inactive
FCRL6 (Fc receptor like 6): two-siRNA summed score (-2 to +2) = 0; outcome = inactive
EIF3KP1: two-siRNA summed score (-2 to +2) = 0; outcome = inactive
OR5M8 (olfactory receptor family 5 subfamily M member 8): two-siRNA summed score (-2 to +2) = 0; outcome = inactive
FAABTP (fatty acid amide binding transmembrane protein): two-siRNA summed score (-2 to +2) = 0; outcome = inactive
MAB21L1 (mab-21 like 1): two-siRNA summed score (-2 to +2) = 0; outcome = inactive
LOC401884: two-siRNA summed score (-2 to +2) = 1; outcome = inactive
LOC441494: two-siRNA summed score (-2 to +2) = 1; outcome = inactive
INPP4A (inositol polyphosphate-4-phosphatase type I A): two-siRNA summed score (-2 to +2) = 0; outcome = inactive
HRH4 (histamine receptor H4): two-siRNA summed score (-2 to +2) = 0; outcome = inactive
HYDIN (HYDIN axonemal central pair apparatus protein): two-siRNA summed score (-2 to +2) = 0; outcome = inactive
BRPF3 (bromodomain and PHD finger containing 3): two-siRNA summed score (-2 to +2) = -2; outcome = active
NUP62 (nucleoporin 62): two-siRNA summed score (-2 to +2) = -1; outcome = inactive
SRC (SRC proto-oncogene, non-receptor tyrosine kinase): two-siRNA summed score (-2 to +2) = 0; outcome = inactive
LOC440752: two-siRNA summed score (-2 to +2) = 1; outcome = inactive
ZP1 (zona pellucida glycoprotein 1): two-siRNA summed score (-2 to +2) = 0; outcome = inactive
TYW3 (tRNA-yW synthesizing protein 3 homolog): two-siRNA summed score (-2 to +2) = 1; outcome = inactive
GTSE1 (G2 and S-phase expressed 1): two-siRNA summed score (-2 to +2) = 0; outcome = inactive
LRRN3 (leucine rich repeat neuronal 3): two-siRNA summed score (-2 to +2) = 0; outcome = inactive
MRPS23 (mitochondrial ribosomal protein S23): two-siRNA summed score (-2 to +2) = 0; outcome = inactive
ITPKC (inositol-trisphosphate 3-kinase C): two-siRNA summed score (-2 to +2) = 0; outcome = inactive
TMEM126A (transmembrane protein 126A): two-siRNA summed score (-2 to +2) = 0; outcome = inactive
H2BC1 (H2B clustered histone 1): two-siRNA summed score (-2 to +2) = 0; outcome = inactive
SUSD4 (sushi domain containing 4): two-siRNA summed score (-2 to +2) = 0; outcome = inactive
IFNWP2 (interferon omega 1 pseudogene 2): two-siRNA summed score (-2 to +2) = 0; outcome = inactive
TOR1AIP2 (torsin 1A interacting protein 2) #1: two-siRNA summed score (-2 to +2) = 0; outcome = inactive
TOR1AIP2 (torsin 1A interacting protein 2) #2: two-siRNA summed score (-2 to +2) = 0; outcome = inactive
